Assay results reported in PubChem BioAssay AID493014 (National Center for Advancing Translational Sciences (NCATS), 2011).
The other results are listed elsewhere or left out. The main result of the screen is listed elsewhere. These columns were measured beside it and carry no call. The list favours compounds with an active or inconclusive main result. Potencies come from curve fits of mixed quality, noted in brackets.

Test: qHTS Assay to Find Inhibitors of Chronic Active B-Cell Receptor Signaling
Conditions: ABC-DLBCL IkBa-CBG/CBR reporter, luminescence ratio (green luciferase fused to IkBa over red control in TMD8 lymphoma cells), 4 h
In short: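 TMD8 human ABC-DLBCL cells with doxycycline-inducible IκBα–green luciferase fusion and unfused red luciferase, in 0.5% FBS medium; compounds up to 46 uM, 4 h at 37C. Green/red luminescence ratio, filter-overlap corrected, fitted to concentration-response curves.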

[1] = measured here: CBR red luminescence, cell number
[2] = measured here: IkBa-CBG green luminescence

| SMILES | AC50 [1] | AC50 [2] |
| --- | --- | --- |
| Cc1cc(=O)oc(C)c1C(=O)Nc1ccc2nsnc2c1 | 0.411 µM [falling, partial curve, poor fit] |  |
| CC(C)CCc1c(O)nc(SCC(C)C)[nH]c1=O | 2.24 µM [rising, partial curve, poor fit] |  |
| Cc1cc(C)n2nc(C(=O)OCC(=O)Nc3ccc4c(c3)OC(F)(F)O4)nc2n1 | 32.6 µM [falling, single point] |  |
| CCOc1cc(/C=N/NC(=O)c2ccc(N(C)S(=O)(=O)c3ccccc3)cc2)ccc1OC | 35.5 µM [falling, single point] |  |
| N/C(=N\c1nc2ccccc2o1)NC(=O)c1ccccc1NC(=O)c1ccccc1 | 5.17 µM [falling, partial curve, poor fit] |  |
| CCCCOP(=O)(c1ccc(N(C)C)cc1)C(O)c1ccccc1F (centres undefined) | 0.0891 µM [falling, full curve, poor fit] |  |
| COc1ccc(C(=O)Nc2cc3c(cc2Cl)OCCCO3)cc1 | 14.6 µM [rising, partial curve] | 16.4 µM [falling, partial curve, poor fit] |
| CCn1c(C(=O)NCc2ccccn2)cc2sccc21 | 4.11 µM [falling, full curve] |  |
| CCOc1cc(/C=C2/SC(=S)NC2=O)ccc1OC(=O)c1ccco1 | 8.91 µM [falling, partial curve, poor fit] |  |
| CCOC(=O)c1c(NC(=S)NC)sc2c1CC(C)(C)SC2 | 23.1 µM [falling, single point] | 18.4 µM [rising, partial curve, poor fit] |
| COc1c(C)cc(Br)cc1C(=O)Nc1cccc(NC(=O)c2ccco2)c1 | 2.06 µM [rising, partial curve, poor fit] |  |
| COc1ccc2nc(NC(=O)C3CCCO3)sc2c1 (centres undefined) | 8.91 µM [falling, partial curve] |  |
| Cc1ncoc1C(=O)Nc1cccc(Cl)c1C | 29.1 µM [falling, single point] |  |
| COc1ccccc1Cc1nc(-c2ccc(C)cc2)no1 | 29.1 µM [falling, single point] |  |
| CCn1c(=O)ccc2cc([N+](=O)[O-])ccc21 | 11.2 µM [rising, partial curve, poor fit] | 22.4 µM [falling, partial curve, poor fit] |
| Cc1ccc(OC(=O)CCc2c(C)nc3ncnn3c2C)cc1 | 14.6 µM [rising, partial curve, poor fit] |  |
| CCC1(c2ccccc2)NC(=S)N(c2ccc(C)c(C)c2)N1 (centres undefined) | 20 µM [rising, partial curve, poor fit] |  |
| CCn1c(=S)sc2c(=O)n(CC(=O)Nc3cccc(Cl)c3)c(C)nc21 | 7.08 µM [falling, partial curve, poor fit] |  |
| O=C(Cn1c(CO)nc2ccccc21)NCCc1ccc(F)cc1 | 0.891 µM [rising, full curve] |  |
| COc1cccc(CNc2ncnc3cc(Cl)ccc23)c1 | 10 µM [falling, partial curve] |  |

| SMILES | AC50 [1] | AC50 [2] |
| --- | --- | --- |
| Cc1sc(NC(=O)CSC2=NCCS2)nc1-c1ccccc1 | 8.2 µM [falling, partial curve, poor fit] |  |
| C#CCNC(=O)C1=C[C@H](c2coc3ccccc3c2=O)C[C@H](OCCCCO)O1 | 0.112 µM [rising, full curve, poor fit] |  |
| Cc1ccnc(NCc2ccc(Br)cc2)c1 | 2.51 µM [rising, full curve, poor fit] |  |
| CN(C)CCn1c2c(c(SCC(=O)Nc3cccc4ccccc34)nc1=O)CCC2 | 7.31 µM [falling, partial curve, poor fit] |  |
| CSC1CCCCC1(O)CSc1nc2c(cc1C#N)CCCC2 (centres undefined) | 3.26 µM [falling, full curve] |  |
| Cc1ccccc1/[N+]([O-])=C/c1ccncc1 | 18.4 µM [falling, partial curve] | 14.6 µM [rising, partial curve, poor fit] |
| Cc1ccc(Cl)cc1N1CCN(S(=O)(=O)c2c(C)[nH]c(=O)[nH]c2=O)CC1 | 0.355 µM [falling, full curve] |  |
| CCN(CC)c1ccc(C(=O)Nc2cccc(F)c2)cc1 | 29.1 µM [falling, single point] |  |
| COc1nc(NCCO)nc(Nc2ccc([N+](=O)[O-])cc2)n1 | 7.31 µM [rising, partial curve, poor fit] |  |
| Cn1c(C(=O)NCCCN2CCN(c3cccc(Cl)c3)CC2)cc2c(=O)n(C)c3ccccc3c21 | 2.06 µM [falling, partial curve, poor fit] |  |
| CC1(C)CC(=O)c2sc(NC(=O)c3cccs3)nc2C1 | 2.31 µM [falling, full curve] |  |
| Cc1ccc(C)c(NC(=O)CN(C)C(=O)c2oc3c(Cl)cccc3c2C)c1 | 5.17 µM [rising, full curve] |  |
| Cc1ccc(NC(=O)Cc2ccc3c(c2)CCCC3)cc1C | 25.9 µM [falling, single point] |  |
| Cc1ccccc1OCCOc1cccc(/C=N/NC(=O)Cc2nnc(N)s2)c1 | 35.5 µM [falling, single point] |  |
| NC(=S)NN=C1C2CC3CC(C2)CC1C3 |  | 22.4 µM [falling, single point] |
| CCCCn1c(CN2CCN(C(=O)OCC)CC2)nc2c1c(=O)n(C)c(=O)n2C | 0.794 µM [falling, full curve, poor fit] |  |
| COc1ccc(-c2cc(C(F)(F)F)nc(S(C)(=O)=O)n2)cc1OC | 2.82 µM [falling, full curve] |  |
| Cc1cccc2sc(N(Cc3cccnc3)C(=O)CCS(=O)(=O)c3ccccc3)nc12 | 35.5 µM [falling, single point] |  |
| S=C(NCc1ccc2c(c1)OCO2)Nc1ccc(-c2nc3ccccc3[nH]2)cc1 | 29.1 µM [falling, single point] |  |
| COc1cccc(NC(=O)c2oc3ccccc3c2NC(C)=O)c1 | 11.2 µM [falling, partial curve, poor fit] |  |

Looked up by compound from the list above (2):

| SMILES | AC50 [1] | AC50 [2] |
| --- | --- | --- |
| Cc1ccc(NC(=O)Cc2ccc3c(c2)CCCC3)cc1C | 25.9 µM [falling, single point] |  |
| Cc1cccc2sc(N(Cc3cccnc3)C(=O)CCS(=O)(=O)c3ccccc3)nc12 | 35.5 µM [falling, single point] |  |
